From publication PMC6220109 come the findings set out here.

Results are given in words; binding and its absence hold for the method and conditions named. Binding seen in cells or lysates may run through a third protein. Binding can be weak; no strength is given. Where a sequence is shown, tags or fusion partners need not be part of it.

This assay has as its target T1, His-tagged recombinant PIP region of PfRCC-PIP, wild type (P. falciparum) (UniProt Q8I2V4).
T1 sequence: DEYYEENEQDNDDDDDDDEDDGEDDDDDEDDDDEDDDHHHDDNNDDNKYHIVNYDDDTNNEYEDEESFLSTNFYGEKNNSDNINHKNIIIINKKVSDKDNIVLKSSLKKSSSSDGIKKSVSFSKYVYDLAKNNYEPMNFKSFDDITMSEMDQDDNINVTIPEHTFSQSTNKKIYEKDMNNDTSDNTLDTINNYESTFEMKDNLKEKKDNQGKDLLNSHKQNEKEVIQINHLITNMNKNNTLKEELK
Briefly: co-IP; beads coupled to antibodies raised against PfRCC-PIP (or pre-immune serum) incubated with recombinant wild type or mutated PIP region and then with PfPP1-GST; immunoblot with anti-GST; both purified.

Turning to PfPP1-GST (P. falciparum) (enzyme), the binding entry was “binds”.
